Test results: patent US4766114A, “Tricyclic compound called 5-((3-chloro-6-methyl-5,5-dioxo-6,11-dihydro-dibenzo (c,f) (1,2)thiazepin-11-yl)-amino) pentanoic acid” (ADIR Et Compagnie, priority 1986, dated 1988)

How the values were obtained:
[1] = test system: reserpine-induced ptosis in the mouse; assay: Effects on reserpine-induced ptosis in the mouse; assay type: in vivo, mouse (male NMRI); details: 25 mg.kg^-1 IP, reserpine 2 mg.kg^-1 IV
Procedure: This experiment was carried out on groups of 20 male NMRI mice (IFFA-CREDO), with an average weight of 20±2 g. […] GOURET et al., in J. Pharmacol., 1977, 8, (3) p. 333-350.
One hour after the injection of the reserpine, the animals were placed on a 5 cm×5 cm square, wood platform for 20 seconds. Ptosis was considered to be positive if the animal's eyes remained shut during the 20 seconds after it was placed on the platform. On the other hand, the animal was considered to be protected if the eyes were not completely closed during the 20 seconds following the moment when it was placed on the platform.

[2] = test system: reserpine-induced hypothermia in the mouse; assay: Effects on reserpine-induced hypothermia in the mouse; assay type: in vivo, mouse (NMRI); details: 50 mg.kg^-1 IP; rectal temperature 4 hours after reserpine 2 mg.kg^-1 IP; controls 24.7 ± 0.88
Procedure: This study was carried out on experimental groups of 10 NMRI mice (IFFA-CREDO) fasted for 18 hours. […] One hour later, all the animals were given an intraperitoneal injection of 2 mg.kg^-1 of reserpine. Hypothermia was evaluated 4 hours after the injection of reserpine by measuring the rectal temperature using an electric thermometer.

[3] = test system: aggressivity of isolated mice; assay: Effects on the aggressivity of isolated mice; assay type: in vivo, mouse (male CD); details: 10 mg.kg^-1 IP, 30 minutes before test; 3 minute test; water controls 6.7 ± 4.7 (ATAH), 5.4 ± 2.8 (formula I)
Procedure: The male CD mice (Charles RIVER) used in this study were housed in small (18×10×10 cm) individual cages with the walls painted black, with one mouse per cage, for several months, at a constant temperature of 21° C. and in a light-darkness cycle of 12 hours. The average weight of the mice at the time of the study was 45 g.
Each experimental group comprised 10 couples of mice previously selected for their aggressivity. The aggressivity test was carried out on non-fasting animals. The "intruding" mouse of each couple was placed in the cage containing the other mouse for a 3 minute period.
The product was administered by the intraperitoneal route, 30 minutes before the test.

[4] = test system: tetrabenazine-induced ptosis in the mouse; assay: Effects on tetrabenazine-induced ptosis in the mouse; assay type: in vivo, mouse (male CD); details: 25 mg.kg^-1 IP
Procedure: Male CD mice (Charles River), of average weight 23 g, were distributed in groups of 12 animals. […] The dose of products tested was 25 mg.kg^-1. The animals were observed individually 5, 25, 35 and 55 minutes after the injection of the tetrabenazine and the intensity of the ptosis was evaluated using a 0 to 4 rating scale.

CN1c2ccccc2C(NCCCCCCC(=O)O)c2ccc(Cl)cc2S1(=O)=O (centres unmarked) [TAHA, 7-[(3-chloro-6-methyl-5,5-dioxo-6,11-dihydro-dibenzo(c,f)(1,2)thiazepin-11-yl)-amino]heptanoic acid, reference compound]
antagonism of reserpine-induced ptosis (in words) [1]: slightly antagonised | animals protected from ptosis ([1]; 20 male NMRI mice per group): 32% | FINAL TE[…] ± SD [2]: 27.1 ± 1.40 | MEAN NUMBER OF ATTACKS ± SD [3]: 7.2 ± 4.6 | % controls (% change of the mean ptosis scores in comparison with the controls), 5 MINUTES ([4]; 5 minutes after tetrabenazine 20 mg.kg^-1): -62.5% | MEAN VALUE OF THE PTOSIS INTENSITY SCORE ± SD, 5 MINUTES ([4]; 5 minutes after tetrabenazine 20 mg.kg^-1, 0 to 4 scale, controls 1.33 ± 0.65): 0.50 ± 0.52 | % controls (% change of the mean ptosis scores in comparison with the controls), 25 MINUTES ([4]; 25 minutes after tetrabenazine 20 mg.kg^-1): -26% | MEAN VALUE OF THE PTOSIS INTENSITY SCORE ± SD, 25 MINUTES ([4]; 25 minutes after tetrabenazine 20 mg.kg^-1, 0 to 4 scale, controls 2.58 ± 0.51): 1.92 ± 0.51 | % controls (% change of the mean ptosis scores in comparison with the controls), 35 MINUTES ([4]; 35 minutes after tetrabenazine 20 mg.kg^-1): -21% | MEAN VALUE OF THE PTOSIS INTENSITY SCORE ± SD, 35 MINUTES ([4]; 35 minutes after tetrabenazine 20 mg.kg^-1, 0 to 4 scale, controls 2.83 ± 0.58): 2.25 ± 0.45 | MEAN VALUE OF THE PTOSIS INTENSITY SCORE ± SD, 55 MINUTES ([4]; 55 minutes after tetrabenazine 20 mg.kg^-1, 0 to 4 scale, controls 3.08 ± 0.51): 2.58 ± 0.51
